For this experiment, the target named is SNAIL (mouse) (UniProt Q02085). The experiment in a line: affinity purification with mass spectrometry; ChIP-MS: PKras^G12D/+;Snail^KI/+ PDAC cells (P144) fixed in 1% formaldehyde, chromatin sonicated to about 500 bp; 1 mg extract immunoprecipitated with anti-Snail rabbit mAb or IgG control overnight at 4 °C, protein A + G magnetic beads, low salt (140 mM NaCl) and high salt (500 mM NaCl) washes; label-free LC-MS/MS.

By UniProt entry, the sequences of proteins in these tests, tags left out.
UniProt Q02085: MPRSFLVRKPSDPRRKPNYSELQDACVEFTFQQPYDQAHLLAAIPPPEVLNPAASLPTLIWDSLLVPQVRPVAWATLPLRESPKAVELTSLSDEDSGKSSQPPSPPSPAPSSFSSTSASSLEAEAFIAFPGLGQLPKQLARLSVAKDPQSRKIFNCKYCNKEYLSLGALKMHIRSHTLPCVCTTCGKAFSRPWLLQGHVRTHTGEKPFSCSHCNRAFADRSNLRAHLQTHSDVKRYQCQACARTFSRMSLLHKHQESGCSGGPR
UniProt Q62432: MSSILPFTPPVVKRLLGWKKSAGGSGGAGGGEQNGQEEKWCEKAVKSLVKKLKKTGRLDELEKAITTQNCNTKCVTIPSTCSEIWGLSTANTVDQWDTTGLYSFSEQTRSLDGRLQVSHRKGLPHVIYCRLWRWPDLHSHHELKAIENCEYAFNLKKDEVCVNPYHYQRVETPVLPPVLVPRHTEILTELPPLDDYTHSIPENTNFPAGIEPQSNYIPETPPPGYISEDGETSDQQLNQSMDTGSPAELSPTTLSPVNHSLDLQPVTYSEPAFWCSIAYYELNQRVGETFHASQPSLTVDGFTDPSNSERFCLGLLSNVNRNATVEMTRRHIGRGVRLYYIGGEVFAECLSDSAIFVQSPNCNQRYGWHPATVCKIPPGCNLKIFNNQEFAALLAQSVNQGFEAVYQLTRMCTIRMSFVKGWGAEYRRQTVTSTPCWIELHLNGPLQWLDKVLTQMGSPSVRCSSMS

These are yes or no findings as the source states them, for the method shown. In cells and extracts the contact can be indirect. Here binding means that the protein was enriched with, or labelled near, the bait; the list need not be complete.

On to SMAD2 (from UniProt Q62432 1-467), for which the binding result is reported as “binds”.

B1: NFKB2 (protein, UniProt Q9WTK5 1-899)
chain: MDNCYDPGLDGIPEYDDFEFSPSIVEPKDPAPETADGPYLVIVEQPKQRGFRFRYGCEGPSHGGLPGASSEKGRKTYPTVKICNYEGPAKIEVDLVTHSDPPRAHAHSLVGKQCSELGVCAVSVGPKDMTAQFNNLGVLHVTKKNMMEIMIQKLQRQRLRSKPQGLTEAERRELEQEAKELKKVMDLSIVRLRFSAFLRASDGSFSLPLKPVISQPIHDSKSPGASNLKISRMDKTAGSVRGGDEVYLLCDKVQKDDIEVRFYEDDENGWQAFGDFSPTDVHKQYAIVFRTPPYHKMKIERPVTVFLQLKRKRGGDVSDSKQFTYYPLVEDKEEVQRKRRKALPTFSQPFGGGSHMGGGSGGSAGGYGGAGGGGSLGFFSSSLAYNPYQSGAAPMGCYPGGGGGAQMAGSRRDTDAGEGAEEPRTPPEAPQGEPQALDTLQRAREYNARLFGLAQRSARALLDYGVTADARALLAGQRHLLMAQDENGDTPLHLAIIHGQTGVIEQIAHVIYHAQYLGVINLTNHLHQTPLHLAVITGQTRVVSFLLQVGADPTLLDRHGDSALHLALRAGAAAPELLQALLRSGAHAVPQILHMPDFEGLYPVHLAVHARSPECLDLLVDCGAEVEAPERQGGRTALHLATEMEELGLVTHLVTKLHANVNARTFAGNTPLHLAAGLGSPTLTRLLLKAGADIHAENEEPLCPLPSPSTSGSDSDSEGPERDTQRNFRGHTPLDLTCSTKVKTLLLNAAQNTTEPPLAPPSPAGPGLSLGDAALQNLEQLLDGPEAQGSWAELAERLGLRSLVDTYRKTPSPSGSLLRSYKLAGGDLVGLLEALSDMGLHEGVRLLKGPETRDKLPSTEVKEDSAYGSQSVEQEAEKLCPPPEPPGGLCHGHPQPQVH
Take B1: the binding entry is listed as “binds”.
